Test results: PMC11519788
Results are given in words; binding and its absence hold for the method and conditions named. In cells and extracts the contact can be indirect. Some results given as binding are weak or reduced against the parent protein; the word gives no strength.

Protein sequences, listed by entry. Tags and fused reporters are not part of them.
UniProt P40763: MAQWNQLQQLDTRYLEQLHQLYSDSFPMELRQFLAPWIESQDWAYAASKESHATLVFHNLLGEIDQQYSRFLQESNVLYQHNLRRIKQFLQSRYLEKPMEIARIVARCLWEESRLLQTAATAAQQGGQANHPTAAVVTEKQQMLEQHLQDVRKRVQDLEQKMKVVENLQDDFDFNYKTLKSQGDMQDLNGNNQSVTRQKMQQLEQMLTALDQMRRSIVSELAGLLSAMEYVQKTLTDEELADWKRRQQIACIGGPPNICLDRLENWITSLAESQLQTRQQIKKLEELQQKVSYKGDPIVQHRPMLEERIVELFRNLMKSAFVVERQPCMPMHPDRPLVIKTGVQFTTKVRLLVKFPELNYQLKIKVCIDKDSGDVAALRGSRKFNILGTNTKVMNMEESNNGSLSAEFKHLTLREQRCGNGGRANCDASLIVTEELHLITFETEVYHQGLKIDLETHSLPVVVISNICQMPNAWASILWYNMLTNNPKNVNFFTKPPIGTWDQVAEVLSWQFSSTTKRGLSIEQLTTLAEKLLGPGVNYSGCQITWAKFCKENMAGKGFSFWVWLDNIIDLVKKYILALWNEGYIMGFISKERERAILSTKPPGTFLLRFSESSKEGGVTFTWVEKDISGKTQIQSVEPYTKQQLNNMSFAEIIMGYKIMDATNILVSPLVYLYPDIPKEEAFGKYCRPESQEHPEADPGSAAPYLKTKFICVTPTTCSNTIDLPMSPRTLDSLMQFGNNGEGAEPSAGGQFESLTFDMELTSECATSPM
UniProt O43791: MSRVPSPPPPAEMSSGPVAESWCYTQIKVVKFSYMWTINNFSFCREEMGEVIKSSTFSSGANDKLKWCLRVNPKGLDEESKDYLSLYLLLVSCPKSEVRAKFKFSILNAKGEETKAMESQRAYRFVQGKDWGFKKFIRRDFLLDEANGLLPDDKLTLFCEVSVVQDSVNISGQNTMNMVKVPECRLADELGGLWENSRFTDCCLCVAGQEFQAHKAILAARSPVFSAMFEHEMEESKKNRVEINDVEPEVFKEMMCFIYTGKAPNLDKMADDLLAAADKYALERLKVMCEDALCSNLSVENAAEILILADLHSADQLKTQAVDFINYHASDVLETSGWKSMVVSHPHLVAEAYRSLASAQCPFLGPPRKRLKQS

Experiments:
[1] = biological target: endogenous STAT3 of T24 cells (human (endogenous in T24)) (UniProt P40763); experiment: co-IP; T24 cells, both proteins endogenous; MG132 10 μM for 6 h before harvest; NP-40 lysis buffer; IP with STAT3 antibody; blot with SPOP antibody
[2] = biological target: FLAG-tagged SPOP (pCMV10-3×FLAG-SPOP), expressed in 293T cells (UniProt O43791); experiment: co-IP; 293T cells co-transfected with HA-STAT3 (WT or mutant) and FLAG-SPOP; MG132 10 μM for 6 h before harvest; NP-40 lysis buffer; IP with FLAG-tag antibody at 4℃ overnight, Protein A/G agarose; blot with HA-tag antibody
[3] = biological target: FLAG-tagged SPOP, transiently expressed in T24 cells (UniProt O43791); experiment: co-IP; T24 cells transiently transfected with FLAG-SPOP; MG132 10 μM for 6 h before harvest; NP-40 lysis buffer; IP with FLAG-tag antibody; blot with STAT3 antibody for endogenous STAT3

Substance: endogenous SPOP of T24 cells (from UniProt O43791 1-374)
- binding [1]: binds

Substance: HA-tagged wild-type STAT3 (pCS2-4×HA-STAT3), expressed in 293T cells (from UniProt P40763 1-770)
- binding [2]: binds

Substance: endogenous STAT3 of T24 cells (from UniProt P40763 1-770)
- binding [3]: binds
